Literature values, collected in patent EP3440167B2, “FRAGRANCED COMPOSITIONS AND THEIR USE” (Unilever IP Holdings B.V., priority 2016, dated 2017).
At least one compound was matched to its structure with a doubt left.

Settings: cited from earlier work

In the case of `CC(=O)/C=C/C1=C(C)CCCC1(C)C` [β-ionone], the iodine value is given as “around 260 grams of iodine consumed by re”.
